Reference: PMC12243203

Biological target: recombinant GST-tag EtSERPIN1 protein (Eimeria tenella)
Test: affinity purification with mass spectrometry; rGST-EtSERPIN1 on glutathione resin, mixed with membrane protein from the chicken caecum epithelium at 4 °C for 2 h; eluted with 10 mmol/L reduced glutathione, pH 8.0; SDS-PAGE, silver stain, bands excised, MS; GST-tag as control; only the target purified

B1: chicken annexin A5 (GgANXA5), endogenous (protein, UniProt P17153 1-321)
chain: MAKYTRGTVTAFSPFDARADAEALRKAMKGMGTDEETILKILTSRNNAQRQEIASAFKTLFGRDLVDDLKSELTGKFETLMVSLMRPARIFDAHALKHAIKGAGTNEKVLTEILASRTPAEVQNIKQVYMQEYEANLEDKITGETSGHFQRLLVVLLQANRDPDGRVDEALVEKDAQVLFRAGELKWGTDEETFITILGTRSVSHLRRVFDKYMTISGFQIEETIDRETSGDLEKLLLAVVKCIRSVPAYFAETLYYSMKGAGTDDDTLIRVMVSRSEIDLLDIRHEFRKNFAKSLYQMIQKDTSGDYRKALLLLCGGDDE
B1 was tested, and the binding was “binds”.

Results are given in words; binding and its absence hold for the method and conditions named. Binding seen in cells or lysates may run through a third protein. Here binding means that the protein was enriched with, or labelled near, the bait; the list need not be complete.
